Measured values taken from US6737537B2, “Platinum (II) antitumor compounds” (Parker Hughes Institute, priority 1999, dated 2004).

System: MDA-MB-231 (Breast Cancer)
Experiment: MTT cytotoxicity assay, MDA-MB-231 cells, 48 hours
Assay type: cell-based
Settings: 48 hours incubation, read-out: IC50 [MTT Assays] MDA-MB-231 (Breast Cancer)
Method: Cytotoxicity was determined by MTT assays and the IC50 values were determined using Graphpad Prism Software.

N.N.[Cl][Pt][Cl] [Cisplatin, reference compound]
IC50: 51.6 ± 6.8 µM
